Data from patent publication US20100247658A1, “ORGANIC COMPOUNDS” (priority 2007, published 2010).

Settings: coarse unmilled

For `C[N+]1(C)CCC(OC(=O)C(O)(c2ccccc2)C2CCCC2)C1.[Br-]` (stereo not shown) [glycopyrrolate, 3-[(cyclopentyl-hydroxyphenylacetyl)oxy]-1,1-dimethyl-pyrrolidinium bromide], the “ka/kb ratio (acid-basic ratio describing surface properties)” value was 1.0.
